In PubChem BioAssay AID1671190 (National Center for Advancing Translational Sciences (NCATS), 2021):
Values joined by “and” are separate entries in the source; they are usually repeats but may differ in a detail not shown here. Identical values can stand only once. The whole screen tested about 580,000 compounds, of which about 6,100 (1.1%) were called active. Inconclusive results, whose numbers are uncertain, are shown with a selection of clear calls. Calls come from the whole dose curve; as a rule, active = well fitted inhibition curve with a large enough effect; inconclusive = small, poorly fitted or top-dose-only effect, or another doubt; inactive = no such curve, though single readings can be large or run the other way. A potency beside an inconclusive call is a rough fit, not a confirmed value.

Chains of the proteins cited; added tags and fusions are not shown. Lines headed by an entry give the natural chain unless they say otherwise; changes in a name come on top.
UniProt P18054: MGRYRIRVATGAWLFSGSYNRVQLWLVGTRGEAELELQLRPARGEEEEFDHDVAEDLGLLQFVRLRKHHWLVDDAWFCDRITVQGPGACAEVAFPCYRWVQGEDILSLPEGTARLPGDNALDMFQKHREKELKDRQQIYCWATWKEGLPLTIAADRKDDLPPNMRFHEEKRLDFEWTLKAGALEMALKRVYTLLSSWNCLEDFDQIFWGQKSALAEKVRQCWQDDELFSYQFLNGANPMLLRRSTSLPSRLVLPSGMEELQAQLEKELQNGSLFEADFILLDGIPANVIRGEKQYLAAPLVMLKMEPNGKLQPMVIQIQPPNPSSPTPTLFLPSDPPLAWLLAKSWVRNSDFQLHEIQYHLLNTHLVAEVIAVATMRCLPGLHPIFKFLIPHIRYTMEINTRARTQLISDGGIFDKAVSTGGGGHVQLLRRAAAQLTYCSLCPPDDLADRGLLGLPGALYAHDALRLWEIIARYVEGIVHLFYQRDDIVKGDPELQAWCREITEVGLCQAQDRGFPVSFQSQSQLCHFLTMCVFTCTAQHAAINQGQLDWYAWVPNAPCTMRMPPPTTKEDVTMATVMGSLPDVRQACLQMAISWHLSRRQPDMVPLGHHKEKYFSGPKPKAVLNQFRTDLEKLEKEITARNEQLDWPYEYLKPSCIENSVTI

The compounds below were run against Polyunsaturated fatty acid lipoxygenase ALOX12 (Homo sapiens) (UniProt P18054) (assay: Primary qHTS assay for inhibitors of human arachidonate 12S-lipoxygenase (ALOX12): Round 2). Details: purified 12hLO, xylenol orange hydroperoxide absorbance; activity change, negative = inhibition: at 108 µM (top of the series) unless noted.
Method in brief: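 Purified human 12hLO at 150 nM in 25 mM Hepes, 0.01% Triton X-100, pH 7.0, preincubated 15 min at room temperature with compound. Reaction started with 40 uM arachidonic acid, 30 min at room temperature. Hydroperoxide measured by Fe-xylenol orange, 573/405 nm absorbance ratio.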
% is set by controls: 0 for no effect and ±100 for the full control effect; potency is the fitted concentration of half-maximal effect.

Question: For `CCOC(=O)[C@@H]1[C@H]2COc3ccccc3[C@@H]2N2C(=O)N(c3ccc(F)cc3)C(=O)[C@@]12C`, which Potency is on record?
Answer: inconclusive: 31.6 µM [inhibitor, partial curve, poor fit]

Question: `COc1ccc(NC(=O)c2c[nH]n3c(=O)cc(C4CCN(C(=O)OC(C)(C)C)CC4)nc23)cc1Cl` was tested. Which Potency did it give?
Answer: active: 39.8 µM

Question: With `OC(c1ccccc1)(c1ccccc1)C1CCN(CCCOc2ccc(-c3cccnc3)cc2)CC1` as the compound, how does the Potency read?
Answer: inconclusive: 50.1 µM [inhibitor, partial curve, poor fit]

Question: For `CCC(=O)Nc1cc2c(cc1OC)C(c1ncnn1CC)CC(=O)N2` (stereo not given), which Potency is on record?
Answer: inactive

Question: Which Potency does the source give for `O=C(NC(=S)Nc1ccc(N2CCOCC2)cc1)c1cccs1` here?
Answer: inconclusive: 25.1 µM [inhibitor, partial curve, poor fit]

Question: For `COc1ccc(N2CCN(C(=O)c3cn(Cc4ccccc4)nc3-c3cccnc3)CC2)cc1`, which Potency is on record?
Answer: inactive

Question: `Cc1ccccc1NC(=S)NN1CCN(C)CC1` was tested. Which activity change, negative = inhibition did it give?
Answer: inconclusive: -32.1% [inhibitor]

Question: `Cc1ccc(S(=O)(=O)N2C[C@@]3(O)Cn4c(=O)ccc(=O)n4C[C@@]3(OC(=O)NCC3CCCCC3)C2)cc1` was tested. Which Potency did it give?
Answer: inactive

Question: `CCN1CCN(C(=O)c2ccc(N3CC4CC(C3)c3cccc(=O)n3C4)c(NC(=O)c3cc(OC)cc(OC)c3)c2)CC1` (stereo not given) was tested. Which Potency did it give?
Answer: inactive

Question: Which Potency does the source give for `O=C(NCc1n[nH]c(=O)c2ccccc12)c1ccc(Cl)cc1` here?
Answer: inconclusive: 35.5 µM [inhibitor, partial curve, poor fit]

Question: How did the Potency turn out when `CCN(CC)C(=O)[C@H]1CC(CC(=O)NCCc2ccccn2)C(=O)N2CCc3c([nH]c4ccc(OC)cc34)[C@]12C` (stereo not given in full) was run?
Answer: inconclusive: 39.8 µM [inhibitor, single point]

Question: For `COc1ccccc1Nc1nc(-c2ccc3c(c2)CCC(=O)N3)cs1`, which Potency is on record?
Answer: active: 10 µM

Question: How did the Potency turn out when `CC(C)(C)NC(=O)N1CCCC(c2nc(CCOc3ccc(F)cc3)no2)C1` (stereo not given) was run?
Answer: inconclusive: 5.01 µM [inhibitor, partial curve, poor fit]

Question: Which Potency does the source give for `Cc1[nH]n(-c2ccccc2)c(=O)c1C(c1ccc(O)c([N+](=O)[O-])c1)c1c(C)[nH]n(-c2ccccc2)c1=O` here?
Answer: inactive

Question: Which results are given for `CN(C)CCCN1c2ccccc2Sc2ccccc21`?
Answer: Potency: inconclusive: 44.7 µM [inhibitor, partial curve, poor fit]; activity change, negative = inhibition: inactive: -21.6% [at 22.9 µM]

Question: With `COCCCNc1nc2ccccc2nc1NS(=O)(=O)c1cccs1` as the compound, how does the Potency read?
Answer: inconclusive: 100 µM [inhibitor, partial curve, poor fit]

Question: How did the Potency turn out when `N#CCc1nc(CSc2nc3ccccc3s2)cs1` was run?
Answer: inconclusive: 15.8 µM [inhibitor, partial curve]

Question: For `COC(=O)N(C)C[C@H]1OCc2cnnn2CCCC(=O)N([C@H](C)CO)C[C@@H]1C`, which Potency is on record?
Answer: inconclusive: 126 µM [inhibitor, single point]

Question: `Cc1cc(N/N=C/c2cccc(Cl)c2)nc(NCc2ccccc2)n1` was tested. Which Potency did it give?
Answer: inactive

Question: Which Potency does the source give for `CCOC(=O)C1=C(O)C(=O)NC(c2ccccc2)=C(OCC)C1` here?
Answer: inconclusive: 5.01 µM [inhibitor, full curve, poor fit]

Question: How did the Potency turn out when `COc1cc2ccccc2cc1C(=O)N(CCN(C)C)c1nc2c(F)cccc2s1` was run?
Answer: inconclusive: 44.7 µM [inhibitor, partial curve, poor fit]

Question: For `Cn1c(=O)c2c(nc(SCc3cccnc3)n2Cc2ccccc2)n(C)c1=O`, which Potency is on record?
Answer: inconclusive: 25.1 µM [inhibitor, partial curve]

Question: How did the Potency turn out when `Cc1sc2c(c1C)c1nc(-c3ccco3)nn1c(=O)n2CCc1ccccc1` was run?
Answer: inconclusive: 44.7 µM [inhibitor, partial curve, poor fit]

Question: `N#CCCN1CCN(CCC#N)c2ccccc21` was tested. Which Potency did it give?
Answer: active: 28.2 µM

Question: How did the Potency turn out when `Cc1ccc(F)cc1S(=O)(=O)N(Cc1cc(CN2CCOCC2)cs1)c1ccc(F)cc1` was run?
Answer: inconclusive: 100 µM [inhibitor, single point]

Question: `CN1C(=O)S/C(=C\C(=O)O)C1=O` was tested. Which Potency did it give?
Answer: inconclusive: 44.7 µM [inhibitor, partial curve, poor fit]

Question: For `O=C(CCC[C@H]1NC[C@@H]2C[C@H]1CN(Cc1ccccc1)C2)N1CCN(Cc2ccccc2F)CC1`, which Potency is on record?
Answer: inconclusive: 25.1 µM [inhibitor, full curve]

Question: `CCCCCCSC1=C(C#N)C(c2ccc(C)cc2)CC(=O)N1` (stereo not given) was tested. Which Potency did it give?
Answer: inconclusive: 50.1 µM [inhibitor, partial curve, poor fit]

Question: For `CCCSc1ccccc1C(=O)Nc1cccc(C)c1C`, which Potency is on record?
Answer: active: 25.1 µM

Question: `Cc1ccc(SCc2nc3scc(C)n3c2Br)cc1` was tested. Which Potency did it give?
Answer: inactive

Question: How did the Potency turn out when `COC(=O)c1sccc1NC(=O)CC1C(=O)NCCN1C(=O)c1ccc(F)cc1` (stereo not given) was run?
Answer: inconclusive: 126 µM [inhibitor, single point]

Question: With `O=C(NCC1CC1)c1ccc(Cn2ccn3nc4c(c3c2=O)CCCC4)cc1` as the compound, how does the Potency read?
Answer: inactive

Question: How did the Potency turn out when `CCN(Cc1ccccc1)c1ccc(N=Nc2nn(C)c(C)c2[N+](=O)[O-])cc1` was run?
Answer: inactive

Question: `CCOc1ccc(-n2c(Cc3cc(=O)[nH]c(=O)[nH]3)nnc2SCC(=O)NC2CCCC2)cc1` was tested. Which Potency did it give?
Answer: inconclusive: 3.98 µM [inhibitor, full curve, poor fit]

Question: For `COc1ccccc1Nc1nc2nccc(-c3ccccc3OC)c2c(=O)[nH]1`, which Potency is on record?
Answer: inactive

Question: Which Potency does the source give for `Cc1cc(C)c(C(N)C(=O)O)c(C)c1` (stereo not given) here?
Answer: inactive

Question: How did the Potency turn out when `Cc1ccc(C(=O)N2CCCC(c3nc4c(nnn4Cc4ccccc4)c(=O)[nH]3)C2)cc1` (stereo not given) was run?
Answer: inconclusive: 112 µM [inhibitor, partial curve, poor fit]

Question: With `CCOc1ccc(N2C(=O)CC(N3CCN(c4ccccc4F)CC3)C2=O)cc1` (stereo not given) as the compound, how does the Potency read?
Answer: inactive

Question: `O=C(CSc1oc(-c2ccco2)nc1S(=O)(=O)c1ccccc1)c1ccc(Cl)cc1` was tested. Which Potency did it give?
Answer: inconclusive: 50.1 µM [inhibitor, partial curve]

Question: Which Potency does the source give for `CC(Oc1ccc(C#N)cc1)C(=O)c1cccc(Cl)c1` (stereo not given) here?
Answer: inconclusive: 44.7 µM [inhibitor, partial curve, poor fit]

Question: `COc1ccccc1-c1ccc(NCC2CCCN(C(=O)C3CC3)C2)nn1` (stereo not given) was tested. Which Potency did it give?
Answer: inconclusive: 50.1 µM [inhibitor, partial curve, poor fit]

Question: Which Potency does the source give for `O=C(Nc1ccc(-c2noc(-c3ccccc3Br)n2)cc1)c1ccc(Br)o1` here?
Answer: inconclusive: 44.7 µM [inhibitor, partial curve, poor fit]

Question: How did the Potency turn out when `CC(C)c1noc(C(C)Nc2ccc3oc(C(C)(C)C)nc3c2)n1` (stereo not given) was run?
Answer: inactive

Question: With `CC(=O)Nc1ccc(NC(=O)c2cc[n+]([O-])cc2)cc1` as the compound, how does the Potency read?
Answer: inconclusive: 39.8 µM [inhibitor, partial curve, poor fit]

Question: How did the Potency turn out when `CCOc1cccc(C(=O)NC(=S)Nc2ccc3c(c2)OCCO3)c1` was run?
Answer: active: 15.8 µM

Question: For `COc1ccc(C(O)Cn2cc([N+](=O)[O-])nc2C)cc1` (stereo not given), which Potency is on record?
Answer: inconclusive: 126 µM [inhibitor, single point]

Question: With `CCCCCCCc1ccc(-c2ccc(O)c(F)c2)nc1` as the compound, how does the Potency read?
Answer: inconclusive: 39.8 µM [inhibitor, partial curve, poor fit]

Question: For `Cc1ccc(-c2cc(=O)c3cc(C)ccc3[nH]2)cc1`, which Potency is on record?
Answer: inactive

Question: How did the Potency turn out when `O=c1c2ccccc2nc2ccccn12` was run?
Answer: inconclusive: 39.8 µM [inhibitor, partial curve, poor fit]

Question: For `CN(C)C(=O)c1ccc(-c2nc(-n3ccnc3)c3ccccc3n2)cc1`, which Potency is on record?
Answer: inconclusive: 56.2 µM [inhibitor, partial curve, poor fit]

Question: With `CC(=O)c1ccc(-n2c(C)c(C(C)=O)c3cc(O)ccc32)cc1` as the compound, how does the Potency read?
Answer: inconclusive: 39.8 µM [inhibitor, partial curve, poor fit]

Question: For `Cn1cc(-c2nc3cnc(N4CCNCC4)nc3n(-c3ccccc3)c2=O)c2ccccc21`, which Potency is on record?
Answer: inconclusive: 35.5 µM [inhibitor, partial curve, poor fit]

Question: Which Potency does the source give for `COc1ccc(C(=O)CC(Nc2ccc([N+](=O)[O-])cc2)c2ccc(Cl)cc2)cc1` (stereo not given) here?
Answer: inactive

Question: With `CC(C)c1ccc(-c2cc(C(=O)O)c3ccccc3n2)cc1` as the compound, how does the Potency read?
Answer: inconclusive: 50.1 µM [inhibitor, partial curve, poor fit]

Question: `O=C(CCc1nc2sc3c(c2c(=O)[nH]1)CCCC3)Nc1cccc(Cl)c1` was tested. Which Potency did it give?
Answer: inconclusive: 112 µM [inhibitor, partial curve, poor fit]

Question: With `O=C(Cc1ccccc1F)NCCC1CCN(C(=O)Nc2cc(F)cc(F)c2)CC1` as the compound, how does the Potency read?
Answer: inactive

Question: Which Potency does the source give for `O=C(O)Cc1sc(NC2CCCCC2)nc1-c1ccc(Cl)cc1` here?
Answer: inconclusive: 22.4 µM [inhibitor, partial curve, poor fit] and inconclusive: 70.8 µM [inhibitor, partial curve, poor fit]

Question: Which Potency does the source give for `Cc1nc(C2(C)CCN(C(=O)CCc3nc4ccccc4[nH]3)CC2)no1` here?
Answer: inactive

Question: For `COc1ccc(NC(=O)/C=C/c2nc3ccccc3o2)c(OC)c1`, which Potency is on record?
Answer: inconclusive: 35.5 µM [inhibitor, partial curve, poor fit]

Question: Which Potency does the source give for `N#C/C(=C\c1ccc(-c2ccc([N+](=O)[O-])cc2Br)o1)C(=O)N1CCN(c2ccccc2)CC1` here?
Answer: inconclusive: 50.1 µM [inhibitor, partial curve, poor fit]

Question: For `c1cncc(CNc2nc(-c3ccoc3)nc3ccccc23)c1`, which Potency is on record?
Answer: inconclusive: 28.2 µM [inhibitor, full curve, poor fit]

Question: How did the Potency turn out when `CCCCn1cc(S(=O)(=O)c2ccc(Cl)cc2)c(=O)c2cc(F)c(N3CCCCC3)cc21` was run?
Answer: inactive

Question: How did the Potency turn out when `Cn1c(SCc2ccc(F)cc2)nc2ccc(C(=O)NCc3ccccc3)cc21` was run?
Answer: inactive

Question: With `COc1ccc2oc(=O)c(C(=O)N3CCN(c4cc(C)ccc4C)CC3)cc2c1` as the compound, how does the Potency read?
Answer: inconclusive: 44.7 µM [inhibitor, partial curve, poor fit]
